This assay has as its target APOL1 G1 Protein (Homo sapiens, UniProt O14791, I384M/S342G). In words: Trypanosoma brucei brucei lysis assay using APOL1 recombinant protein (AlamarBlue viability). The note with it: read-out: Trypanosoma Assay (IC50). It is filed as cell-based. The text has this: Trypanosoma brucei brucei is a blood stream parasite to which human, gorillas and baboon are immune due to the presence of the APOL1 protein in their HDL particles. The protein is uptaken by the parasite via the TbHpHb receptor located in its flagellar pocket and is bonded by the Hpr protein contained in the HDL particles which triggers the receptor endocytosis by the parasite.
Following endocytosis, the formed vesicle containing the HDL particle matures from early to late endosome, and subsequently to lysosome. […]
Briefly, the AlamarBlue active compound, the resazurin, a blue, water soluble, non-toxic and cell permeable molecule, which can be followed by absorbance, is reduced by various metabolic pathways into resorufin, a red compound which can be followed by either absorbance or fluorescence. […]
Assay Ready Plates (ARPs) • ARPs comes in two formats: • […] final top concentration with a 2.5 fold dilution down. • […] final top concentration with a 3 fold dilution down. • Both have a 10 point Dose response. • 0.1% DMSO final in the Black Assay Plate. • Compounds are diluted 1000 fold in the Black Assay Plate. • Each plate is designed for 14 compounds in duplicate. • In the final Black Assay Plate: […]
Background: Resazurin is reduced to fluorescent resorufin, in cell work by metabolically active cells.

Amino acid sequences for entries named in this document (tags omitted). Residues count along the entry.
UniProt O14791, 28-398 S342G/I384M limits assumed: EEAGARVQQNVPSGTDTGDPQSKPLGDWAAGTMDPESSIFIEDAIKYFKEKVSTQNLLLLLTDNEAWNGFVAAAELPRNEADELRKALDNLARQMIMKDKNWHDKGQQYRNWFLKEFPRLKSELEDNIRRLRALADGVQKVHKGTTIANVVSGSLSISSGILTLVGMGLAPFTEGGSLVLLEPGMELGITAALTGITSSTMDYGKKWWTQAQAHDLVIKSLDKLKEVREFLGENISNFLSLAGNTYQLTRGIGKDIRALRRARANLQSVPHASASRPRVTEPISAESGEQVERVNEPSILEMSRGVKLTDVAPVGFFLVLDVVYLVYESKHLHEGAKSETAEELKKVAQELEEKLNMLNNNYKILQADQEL

The structures given here were assigned with low confidence; some may be wrong.

What is called IC50 is the concentration that gives 50% inhibition. With `CC(O)[C@H](CO)NC(=O)[C@H]1C[C@H](c2c(-c3ccc(F)cc3)[nH]c3c(F)cc(F)cc32)C1` (stereo partly shown), the IC50 was below 250 nM.

The record behind these values is US12116343B2, “Inhibitors of APOL1 and methods of using same” (Vertex Pharmaceuticals Incorporated, priority 2020, dated 2024).
